Laboratory results taken from paper doi:10.1101/2022.03.04.482956.
Like-named read-outs stand apart in the source and are kept apart here. No constants are given. Whether binding was seen depends on the method and setting. For part of these data: Binding seen in cells or lysates may run through a third protein. Some binding calls cover weakened binding; strength is not graded here. Each block holds one molecule with its values, some of them ahead of it.

By UniProt entry, the sequences of proteins in these tests, tags left out. Where a name states a change or a piece, a line headed by the entry shows the natural chain unless it says otherwise. Residues count along the entry.
UniProt Q86YI8, whole entry: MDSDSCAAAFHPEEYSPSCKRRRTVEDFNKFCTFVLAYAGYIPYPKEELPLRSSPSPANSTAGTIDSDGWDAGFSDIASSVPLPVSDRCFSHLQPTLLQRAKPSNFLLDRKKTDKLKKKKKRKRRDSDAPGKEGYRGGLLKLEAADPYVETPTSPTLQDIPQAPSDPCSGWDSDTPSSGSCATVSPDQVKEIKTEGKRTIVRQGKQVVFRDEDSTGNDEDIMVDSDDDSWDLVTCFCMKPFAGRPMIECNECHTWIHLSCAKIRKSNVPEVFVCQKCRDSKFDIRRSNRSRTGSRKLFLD
UniProt Q86YI8, 150-300: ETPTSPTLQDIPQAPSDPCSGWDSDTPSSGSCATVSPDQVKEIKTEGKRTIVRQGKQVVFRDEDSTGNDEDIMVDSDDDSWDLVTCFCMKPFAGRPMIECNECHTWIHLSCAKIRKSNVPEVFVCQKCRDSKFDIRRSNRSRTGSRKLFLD
UniProt Q86YI8, 1-150: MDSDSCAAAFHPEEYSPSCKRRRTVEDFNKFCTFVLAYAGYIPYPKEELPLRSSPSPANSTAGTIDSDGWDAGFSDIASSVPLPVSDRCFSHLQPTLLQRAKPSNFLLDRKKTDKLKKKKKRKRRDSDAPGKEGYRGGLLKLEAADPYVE
UniProt Q9UQE7, whole entry: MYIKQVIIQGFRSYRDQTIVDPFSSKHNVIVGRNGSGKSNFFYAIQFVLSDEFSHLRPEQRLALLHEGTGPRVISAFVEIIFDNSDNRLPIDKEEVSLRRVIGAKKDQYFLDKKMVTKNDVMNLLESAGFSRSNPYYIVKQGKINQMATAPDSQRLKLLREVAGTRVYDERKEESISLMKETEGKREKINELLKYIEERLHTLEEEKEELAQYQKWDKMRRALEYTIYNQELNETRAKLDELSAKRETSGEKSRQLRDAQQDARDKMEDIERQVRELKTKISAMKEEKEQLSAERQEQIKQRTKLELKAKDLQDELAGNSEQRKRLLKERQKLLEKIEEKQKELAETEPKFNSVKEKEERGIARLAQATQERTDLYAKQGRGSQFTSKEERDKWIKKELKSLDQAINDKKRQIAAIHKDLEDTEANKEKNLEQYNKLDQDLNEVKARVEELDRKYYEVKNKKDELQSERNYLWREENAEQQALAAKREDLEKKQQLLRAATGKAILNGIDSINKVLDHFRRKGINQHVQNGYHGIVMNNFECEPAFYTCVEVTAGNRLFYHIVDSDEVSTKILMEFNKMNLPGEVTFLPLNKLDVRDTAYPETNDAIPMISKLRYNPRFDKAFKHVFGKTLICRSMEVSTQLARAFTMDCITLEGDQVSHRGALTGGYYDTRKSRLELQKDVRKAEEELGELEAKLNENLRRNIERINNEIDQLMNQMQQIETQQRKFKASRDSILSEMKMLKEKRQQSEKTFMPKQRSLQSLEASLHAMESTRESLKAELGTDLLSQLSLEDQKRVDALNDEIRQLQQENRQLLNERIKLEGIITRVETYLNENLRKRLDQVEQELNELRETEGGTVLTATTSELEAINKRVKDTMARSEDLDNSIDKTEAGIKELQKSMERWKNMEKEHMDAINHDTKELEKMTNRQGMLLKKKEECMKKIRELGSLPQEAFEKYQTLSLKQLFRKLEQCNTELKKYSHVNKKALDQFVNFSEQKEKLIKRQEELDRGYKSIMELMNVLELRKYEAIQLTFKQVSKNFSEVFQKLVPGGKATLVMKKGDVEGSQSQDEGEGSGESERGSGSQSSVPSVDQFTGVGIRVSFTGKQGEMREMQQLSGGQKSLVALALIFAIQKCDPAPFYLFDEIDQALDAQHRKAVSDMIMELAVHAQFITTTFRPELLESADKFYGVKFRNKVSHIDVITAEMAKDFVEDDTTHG

Key:
YFP-PHF13 = YFP-PHF13 (UniProt Q86YI8); test: FRET or BRET
YFP-PHF13 Δ7 (150-300) [1] = molecular target: YFP-PHF13 Δ7 (150-300) (UniProt Q86YI8); test: co-IP
YFP-PHF13 Δ7M246A [2] = molecular target: YFP-PHF13 Δ7M246A (UniProt Q86YI8); test: co-IP
YFP-PHF13 Δ7W255A [3] = molecular target: YFP-PHF13 Δ7W255A (UniProt Q86YI8); test: co-IP
[4] = molecular target: PHF13 (endogenous) (human (endogenous in U2OS)) (UniProt Q86YI8); test: co-IP
YFP-PHF13 Δ7 (150-300) [5] = molecular target: YFP-PHF13 Δ7 (150-300) (UniProt Q86YI8); test: co-IP; remark: listed apart in the source
YFP-PHF13 Δ7M246A [6] = molecular target: YFP-PHF13 Δ7M246A (UniProt Q86YI8); test: co-IP; remark: listed apart in the source
YFP-PHF13 Δ7W255A [7] = molecular target: YFP-PHF13 Δ7W255A (UniProt Q86YI8); test: co-IP; remark: listed apart in the source
[8] = molecular target: SMC3 (endogenous cohesin subunit) (human (endogenous in U2OS)) (UniProt Q9UQE7); test: co-IP
[9] = molecular target: in vitro translated PHF13 (UniProt Q86YI8); test: SEC
Flag-PHF13 (1-300aa) = Flag-PHF13 (1-300aa) (UniProt Q86YI8); test: co-IP
Flag-PHF13_1-150 = Flag-PHF13_1-150 (UniProt Q86YI8); test: co-IP
[10] = molecular target: PHF13 (endogenous) (human (endogenous in U2OS)) (UniProt Q86YI8); test: co-IP; remark: listed apart in the source
YFP-PHF13 Δ7 (150-300) [11] = molecular target: YFP-PHF13 Δ7 (150-300) (UniProt Q86YI8); test: co-IP; remark: listed apart in the source
YFP-PHF13 Δ7M246A [12] = molecular target: YFP-PHF13 Δ7M246A (UniProt Q86YI8); test: co-IP; remark: listed apart in the source
YFP-PHF13 Δ7W255A [13] = molecular target: YFP-PHF13 Δ7W255A (UniProt Q86YI8); test: co-IP; remark: listed apart in the source

- binding (YFP-PHF13): binds
Molecule: CFP-PHF13 1-150 (the first 150 N-terminal amino acids) (from UniProt Q86YI8 1-150) (domain or fragment)

- binding (YFP-PHF13): no binding
Molecule: CFP-PHF13 ΔNTD (from UniProt Q86YI8 1-300)

- binding (Flag-PHF13 (1-300aa)): binds
Molecule: YFP-PHF13 (from UniProt Q86YI8 1-300)

- binding (Flag-PHF13 (1-300aa)): binds
- binding (Flag-PHF13_1-150): binds
Molecule: EGFP-PHF13 (from UniProt Q86YI8 1-300)

- binding [10]: binds
- binding (YFP-PHF13 Δ7 (150-300) [11]): binds
- binding (YFP-PHF13 Δ7M246A [12]): binds
- binding (YFP-PHF13 Δ7W255A [13]): binds
B1: SA2 (endogenous cohesin subunit) (protein, UniProt Q8N3U4 1-1231)
chain: MIAAPEIPTDFNLLQESETHFSSDTDFEDIEGKNQKQGKGKTCKKGKKGPAEKGKGGNGGGKPPSGPNRMNGHHQQNGVENMMLFEVVKMGKSAMQSVVDDWIESYKHDRDIALLDLINFFIQCSGCKGVVTAEMFRHMQNSEIIRKMTEEFDEDSGDYPLTMAGPQWKKFKSSFCEFIGVLVRQCQYSIIYDEYMMDTVISLLTGLSDSQVRAFRHTSTLAAMKLMTALVNVALNLSINMDNTQRQYEAERNKMIGKRANERLELLLQKRKELQENQDEIENMMNAIFKGVFVHRYRDAIAEIRAICIEEIGIWMKMYSDAFLNDSYLKYVGWTMHDKQGEVRLKCLTALQGLYYNKELNSKLELFTSRFKDRIVSMTLDKEYDVAVQAIKLLTLVLQSSEEVLTAEDCENVYHLVYSAHRPVAVAAGEFLYKKLFSRRDPEEDGMMKRRGRQGPNANLVKTLVFFFLESELHEHAAYLVDSMWDCATELLKDWECMNSLLLEEPLSGEEALTDRQESALIEIMLCTIRQAAECHPPVGRGTGKRVLTAKEKKTQLDDRTKITELFAVALPQLLAKYSVDAEKVTNLLQLPQYFDLEIYTTGRLEKHLDALLRQIRNIVEKHTDTDVLEACSKTYHALCNEEFTIFNRVDISRSQLIDELADKFNRLLEDFLQEGEEPDEDDAYQVLSTLKRITAFHNAHDLSKWDLFACNYKLLKTGIENGDMPEQIVIHALQCTHYVILWQLAKITESSSTKEDLLRLKKQMRVFCQICQHYLTNVNTTVKEQAFTILCDILMIFSHQIMSGGRDMLEPLVYTPDSSLQSELLSFILDHVFIEQDDDNNSADGQQEDEASKIEALHKRRNLLAAFCKLIVYTVVEMNTAADIFKQYMKYYNDYGDIIKETMSKTRQIDKIQCAKTLILSLQQLFNEMIQENGYNFDRSSSTFSGIKELARRFALTFGLDQLKTREAIAMLHKDGIEFAFKEPNPQGESHPPLNLAFLDILSEFSSKLLRQDKRTVYVYLEKFMTFQMSLRREDVWLPLMSYRNSLLAGGDDDTMSVISGISSRGSTVRSKKSKPSTGKRKVVEGMQLSLTEESSSSDSMWLSREQTLHTPVMMQTPQLTSTIMREPKRLRPEDSFMSVYPMQTEHHQTPLDYNRRGTSLMEDDEEPIVEDVMMSSEGRIEDLNEGMDFDTMDIDLPPSKNRRERTELKPDFFDPASIMDESVLGVSMF

- binding [10]: binds
B2: RAD21 (endogenous cohesin subunit) (protein, UniProt O60216 1-631)
chain: MFYAHFVLSKRGPLAKIWLAAHWDKKLTKAHVFECNLESSVESIISPKVKMALRTSGHLLLGVVRIYHRKAKYLLADCNEAFIKIKMAFRPGVVDLPEENREAAYNAITLPEEFHDFDQPLPDLDDIDVAQQFSLNQSRVEEITMREEVGNISILQENDFGDFGMDDREIMREGSAFEDDDMLVSTTTSNLLLESEQSTSNLNEKINHLEYEDQYKDDNFGEGNDGGILDDKLISNNDGGIFDDPPALSEAGVMLPEQPAHDDMDEDDNVSMGGPDSPDSVDPVEPMPTMTDQTTLVPNEEEAFALEPIDITVKETKAKRKRKLIVDSVKELDSKTIRAQLSDYSDIVTTLDLAPPTKKLMMWKETGGVEKLFSLPAQPLWNNRLLKLFTRCLTPLVPEDLRKRRKGGEADNLDEFLKEFENPEVPREDQQQQHQQRDVIDEPIIEEPSRLQESVMEASRTNIDESAMPPPPPQGVKRKAGQIDPEPVMPPQQVEQMEIPPVELPPEEPPNICQLIPELELLPEKEKEKEKEKEDDEEEEDEDASGGDQDQEERRWNKRTQQMLHGLQRALAKTGAESISLLELCRNTNRKQAAAKFYSFLVLKKQQAIELTQEEPYSDIIATPGPRFHII

Further lines, the molecule ahead of its results:

Molecule: CFP-PHF13 Δ24-40 (from UniProt Q86YI8 1-300)
- binding (YFP-PHF13): no binding

Molecule: SMC3 (endogenous cohesin subunit) (from UniProt Q9UQE7 1-1217)
- binding (YFP-PHF13 Δ7 (150-300) [1]): binds
- binding (YFP-PHF13 Δ7M246A [2]): binds
- binding (YFP-PHF13 Δ7W255A [3]): binds
- binding [4]: binds
- binding (YFP-PHF13 Δ7 (150-300) [5]): binds
- binding (YFP-PHF13 Δ7M246A [6]): binds
- binding (YFP-PHF13 Δ7W255A [7]): binds

Molecule: PHF13 (endogenous) (from UniProt Q86YI8 1-300)
- binding [8]: binds

Molecule: in vitro translated PHF13 (from UniProt Q86YI8 1-300)
- binding [9]: binds

Molecule: CFP-150-300 (from UniProt Q86YI8 150-300) (domain or fragment)
- binding (YFP-PHF13): no binding
